This is one part of the list.
Columns and labels:
Assay in all cases: glycan array binding signal (z-score within array); higher = stronger binding
Details in all cases: glycan notation: IUPAC condensed, linker removed
[1] = target: Neu5Ac(a2-3)Gal(b1-3)GlcNAc(b1-6)GalNAc
Outline: (§1)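 Glycan array data were curated from 3228 arrays in the Consortium for Functional Glycomics database and kept only where the protein sequence was available. Glycan names were converted to IUPAC-condensed notation, and columns mapping to the same glycan were averaged. The binding signal is a within-array Z-score, averaged across arrays of the same protein sequence at different concentrations or buffers and across linkers. Negative Z-scores can be read as non-binding.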

[2] = target: Neu5Ac(a2-3)Gal(b1-3)GlcNAc6S
Outline: as §1

[3] = target: Neu5Ac(a2-3)Gal(b1-3)[Fuc(a1-4)]GlcNAc
Outline: as §1

[4] = target: Neu5Ac(a2-3)Gal(b1-3)[Fuc(a1-4)]GlcNAc(b1-3)Gal(b1-3)[Fuc(a1-4)]GlcNAc
Outline: as §1

[5] = target: Neu5Ac(a2-3)Gal(b1-3)[Fuc(a1-4)]GlcNAc(b1-3)Gal(b1-4)[Fuc(a1-3)]GlcNAc
Outline: as §1

[6] = target: Neu5Ac(a2-3)Gal(b1-3)[GlcNAc(b1-6)]GalNAc
Outline: as §1

[7] = target: Neu5Ac(a2-3)Gal(b1-3)[Neu5Ac(a2-6)]GalNAc
Outline: as §1

[8] = target: Neu5Ac(a2-3)Gal(b1-3)[Neu5Ac(a2-6)]GlcNAc(b1-3)[Fuc(a1-3)[Gal(b1-4)]GlcNAc(b1-6)]Gal(b1-4)Glc
Outline: as §1

[9] = target: Neu5Ac(a2-3)Gal(b1-3)]Neu5Ac(a2-3)Gal(b1-4)]GlcNAc
Outline: as §1

Neu5Ac(a2-3)Gal(b1-4)Glc = target: Neu5Ac(a2-3)Gal(b1-4)Glc
Outline: as §1

[10] = target: Neu5Ac(a2-3)Gal(b1-4)GlcNAc
Outline: as §1

[11] = target: Neu5Ac(a2-3)Gal(b1-4)GlcNAc(b1-2)Man
Outline: as §1

[12] = target: Neu5Ac(a2-3)Gal(b1-4)GlcNAc(b1-2)Man(a1-3)[GlcNAc(b1-4)][Neu5Ac(a2-3)Gal(b1-4)GlcNAc(b1-2)Man(a1-6)]Man(b1-4)GlcNAc(b1-4)GlcNAc
Outline: as §1

[13] = target: Neu5Ac(a2-3)Gal(b1-4)GlcNAc(b1-2)Man(a1-3)[Neu5Ac(a2-3)Gal(b1-4)GlcNAc(b1-2)Man(a1-6)]Man(b1-4)GlcNAc(b1-4)GlcNAc
Outline: as §1

[14] = target: Neu5Ac(a2-3)Gal(b1-4)GlcNAc(b1-2)Man(a1-3)[Neu5Ac(a2-3)Gal(b1-4)GlcNAc(b1-2)Man(a1-6)]Man(b1-4)GlcNAc(b1-4)[Fuc(a1-6)]GlcNAc
Outline: as §1

[15] = target: Neu5Ac(a2-3)Gal(b1-4)GlcNAc(b1-2)Man(a1-3)[Neu5Ac(a2-6)Gal(b1-4)GlcNAc(b1-2)Man(a1-6)]Man(b1-4)GlcNAc(b1-4)GlcNAc
Outline: as §1

[16] = target: Neu5Ac(a2-3)Gal(b1-4)GlcNAc(b1-2)[Neu5Ac(a2-3)Gal(b1-4)GlcNAc(b1-4)]Man(a1-3)[GlcNAc(b1-4)][Neu5Ac(a2-3)Gal(b1-4)GlcNAc(b1-2)[Neu5Ac(a2-3)Gal(b1-4)GlcNAc(b1-6)]Man(a1-6)]Man(b1-4)GlcNAc(b1-4)GlcNAc
Outline: as §1

[17] = target: Neu5Ac(a2-3)Gal(b1-4)GlcNAc(b1-2)[Neu5Ac(a2-3)Gal(b1-4)GlcNAc(b1-4)]Man(a1-3)[GlcNAc(b1-4)][Neu5Ac(a2-3)Gal(b1-4)GlcNAc(b1-4)Man(a1-6)]Man(b1-4)GlcNAc(b1-4)GlcNAc
Outline: as §1

[18] = target: Neu5Ac(a2-3)Gal(b1-4)GlcNAc(b1-2)[Neu5Ac(a2-3)Gal(b1-4)GlcNAc(b1-6)]Man(a1-6)[Neu5Ac(a2-3)Gal(b1-4)GlcNAc(b1-2)Man(a1-3)][GlcNAc(b1-4)]Man(b1-4)GlcNAc(b1-4)GlcNAc
Outline: as §1

[19] = target: Neu5Ac(a2-3)Gal(b1-4)GlcNAc(b1-3)Gal
Outline: as §1

[20] = target: Neu5Ac(a2-3)Gal(b1-4)GlcNAc(b1-3)Gal(b1-3)GlcNAc
Outline: as §1

[21] = target: Neu5Ac(a2-3)Gal(b1-4)GlcNAc(b1-3)Gal(b1-4)GlcNAc
Outline: as §1

[22] = target: Neu5Ac(a2-3)Gal(b1-4)GlcNAc(b1-3)Gal(b1-4)GlcNAc(b1-2)Man(a1-3)[Neu5Ac(a2-3)Gal(b1-4)GlcNAc(b1-3)Gal(b1-4)GlcNAc(b1-2)Man(a1-6)]Man(b1-4)GlcNAc(b1-4)GlcNAc
Outline: as §1

[23] = target: Neu5Ac(a2-3)Gal(b1-4)GlcNAc(b1-3)Gal(b1-4)GlcNAc(b1-3)Gal(b1-4)GlcNAc
Outline: as §1

[24] = target: Neu5Ac(a2-3)Gal(b1-4)GlcNAc(b1-3)Gal(b1-4)GlcNAc(b1-3)Gal(b1-4)GlcNAc(b1-2)Man(a1-3)[Neu5Ac(a2-3)Gal(b1-4)GlcNAc(b1-3)Gal(b1-4)GlcNAc(b1-3)Gal(b1-4)GlcNAc(b1-2)Man(a1-6)]GalNAc
Outline: as §1

[25] = target: Neu5Ac(a2-3)Gal(b1-4)GlcNAc(b1-3)Gal(b1-4)GlcNAc(b1-3)GalNAc
Outline: as §1

[26] = target: Neu5Ac(a2-3)Gal(b1-4)GlcNAc(b1-3)Gal(b1-4)GlcNAc(b1-3)[Neu5Ac(a2-3)Gal(b1-4)GlcNAc(b1-3)Gal(b1-4)GlcNAc(b1-6)]GalNAc
Outline: as §1

[27] = target: Neu5Ac(a2-3)Gal(b1-4)GlcNAc(b1-3)Gal(b1-4)GlcNAc(b1-6)[Gal(b1-3)]GalNAc
Outline: as §1

[28] = target: Neu5Ac(a2-3)Gal(b1-4)GlcNAc(b1-3)Gal(b1-4)[Fuc(a1-3)]GlcNAc
Outline: as §1

[29] = target: Neu5Ac(a2-3)Gal(b1-4)GlcNAc(b1-3)GalNAc
Outline: as §1

B1: CcfD (Bacteroides fragilis), Q5L9G4 (protein)
chain: MKKQNSIYTLLIALLCFVSSCDYLGVSDQLAGGLQNTEQVFDNVSYTKRWYANVFAGIPDYSGINSVNVGAFKNPWTGMCDELVVGYGNSSKYNNSDRNAANMGFHRYGDCYKYIRQANIFLQKAHPIMTTGTQGDQLLEDELTQMKANVRFMRAFYHYLLFEQYGPIILVKDKIYNATEDQDVPRNTVDEVIEYIDSELTAVASELTQEPIFEDKDYRAWPTKGVALAVRAKLWLYAASPLLNGGYREALSVTNPDGTRLFPDYDAGKWEKALAACKDFIDYAEAGRYELYKEYKDDNGAVIDPDKSVYNLFQKYTHEIIWATANNDWGGMNGDAFDRRIAPRCEKNGLGSTGVTQELVDAFYMKDGFPVSATAYLPQSTLYQEEGYGTYKDQNDNFSKKYTNVTVSNRYLNREPRFYNTVFFNGRQWPVSCNQVLFYNGGNSGVQEGQATLTGYMLFKRFNRSVSLTNPGVASQFRPSIIFRLADFYLMYAEAANEVNPNDARVLKYLNLVRERAGLPDIETLNPAIRGNQELQRAAIQRERQIELATEGQRYFDVRRWMIADKNGEGRQNGYVHGMNVRGESNDKEDFNRIVEASQIVFNRKMYLYPMPDSEMRKTKNLVQNPGW
[1]
  glycan array binding signal (z-score): -0.64
[2]
  glycan array binding signal (z-score): 0.588
[3]
  glycan array binding signal (z-score): -0.082
[4]
  glycan array binding signal (z-score): -0.68
[5]
  glycan array binding signal (z-score): -0.076
[6]
  glycan array binding signal (z-score): 0.22
[7]
  glycan array binding signal (z-score): -0.049
[8]
  glycan array binding signal (z-score): -0.522
[9]
  glycan array binding signal (z-score): -0.87
Neu5Ac(a2-3)Gal(b1-4)Glc
  glycan array binding signal (z-score): -0.624
[10]
  glycan array binding signal (z-score): -0.414
[11]
  glycan array binding signal (z-score): -0.338
[12]
  glycan array binding signal (z-score): -0.667
[13]
  glycan array binding signal (z-score): -0.601
[14]
  glycan array binding signal (z-score): 0.548
[15]
  glycan array binding signal (z-score): -0.805
[16]
  glycan array binding signal (z-score): -0.437
[17]
  glycan array binding signal (z-score): -0.752
[18]
  glycan array binding signal (z-score): -0.069
[19]
  glycan array binding signal (z-score): -0.785
[20]
  glycan array binding signal (z-score): 0.975
[21]
  glycan array binding signal (z-score): -0.502
[22]
  glycan array binding signal (z-score): -0.634
[23]
  glycan array binding signal (z-score): -0.154
[24]
  glycan array binding signal (z-score): 0.391
[25]
  glycan array binding signal (z-score): -0.43
[26]
  glycan array binding signal (z-score): -0.706
[27]
  glycan array binding signal (z-score): -0.942
[28]
  glycan array binding signal (z-score): -0.509
[29]
  glycan array binding signal (z-score): -0.089
